Patent US20070243181A1
No constants are given. Whether binding was seen depends on the method and setting. Binding seen in cells or lysates may run through a third protein. Some entries that bind do so weakly or less than the wild type.

Chains of the proteins cited; added tags and fusions are not shown. Lines headed by an entry give the natural chain unless they say otherwise; changes in a name come on top. A line that says so, or that is headed by a name, gives the form on record, which may keep a tag or linker.
UniProt Q99836: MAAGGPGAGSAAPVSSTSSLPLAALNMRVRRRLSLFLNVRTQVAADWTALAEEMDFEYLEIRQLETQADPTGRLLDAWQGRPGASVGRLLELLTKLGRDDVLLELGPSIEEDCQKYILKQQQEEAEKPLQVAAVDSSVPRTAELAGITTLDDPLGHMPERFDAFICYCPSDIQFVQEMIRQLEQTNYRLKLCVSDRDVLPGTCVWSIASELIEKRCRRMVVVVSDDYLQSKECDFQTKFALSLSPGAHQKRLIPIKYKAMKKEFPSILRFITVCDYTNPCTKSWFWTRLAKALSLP
UniProt P51617: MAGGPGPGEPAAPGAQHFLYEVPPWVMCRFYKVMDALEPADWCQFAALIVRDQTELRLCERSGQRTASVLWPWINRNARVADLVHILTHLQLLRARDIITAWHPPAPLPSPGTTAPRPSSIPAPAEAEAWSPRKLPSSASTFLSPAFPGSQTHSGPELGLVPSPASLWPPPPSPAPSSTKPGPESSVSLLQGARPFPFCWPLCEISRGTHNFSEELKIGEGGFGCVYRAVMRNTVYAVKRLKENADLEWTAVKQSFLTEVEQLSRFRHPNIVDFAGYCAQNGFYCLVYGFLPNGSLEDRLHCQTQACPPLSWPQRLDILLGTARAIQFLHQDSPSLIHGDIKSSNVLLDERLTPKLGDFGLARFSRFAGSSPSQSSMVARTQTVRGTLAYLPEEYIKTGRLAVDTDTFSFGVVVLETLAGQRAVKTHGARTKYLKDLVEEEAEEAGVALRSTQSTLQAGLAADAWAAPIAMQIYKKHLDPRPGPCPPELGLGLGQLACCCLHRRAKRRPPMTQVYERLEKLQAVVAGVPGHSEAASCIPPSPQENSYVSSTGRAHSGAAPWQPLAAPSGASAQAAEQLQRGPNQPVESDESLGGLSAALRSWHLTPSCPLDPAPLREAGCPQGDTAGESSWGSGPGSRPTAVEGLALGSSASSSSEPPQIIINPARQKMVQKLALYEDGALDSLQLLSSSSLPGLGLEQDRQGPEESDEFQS
myc-IRAK1-KD (P51617, form named): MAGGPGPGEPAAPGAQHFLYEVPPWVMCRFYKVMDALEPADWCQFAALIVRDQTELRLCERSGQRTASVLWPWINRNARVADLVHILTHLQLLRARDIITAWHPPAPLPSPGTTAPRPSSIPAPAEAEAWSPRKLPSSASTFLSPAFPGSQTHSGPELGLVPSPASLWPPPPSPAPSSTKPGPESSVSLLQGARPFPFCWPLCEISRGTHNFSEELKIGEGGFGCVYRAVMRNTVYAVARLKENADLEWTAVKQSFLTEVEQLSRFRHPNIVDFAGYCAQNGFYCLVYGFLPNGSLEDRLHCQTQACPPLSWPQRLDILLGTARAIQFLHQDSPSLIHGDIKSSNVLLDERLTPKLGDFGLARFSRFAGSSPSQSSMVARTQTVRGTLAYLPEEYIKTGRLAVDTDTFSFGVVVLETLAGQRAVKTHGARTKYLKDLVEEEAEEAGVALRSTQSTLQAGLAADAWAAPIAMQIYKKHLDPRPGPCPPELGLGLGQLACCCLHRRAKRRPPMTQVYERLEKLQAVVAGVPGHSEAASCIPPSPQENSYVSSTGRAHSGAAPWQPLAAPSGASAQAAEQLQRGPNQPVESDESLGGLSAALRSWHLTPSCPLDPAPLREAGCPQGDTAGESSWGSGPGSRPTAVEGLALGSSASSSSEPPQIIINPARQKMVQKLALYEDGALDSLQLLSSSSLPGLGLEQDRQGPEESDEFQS

Target: FLAG-tagged MyD88 (UniProt Q99836)
Test: co-immunoprecipitation from co-transfected 293T cells: anti-FLAG IP, anti-myc immunoblot

| binding | Substance |
| --- | --- |
| binds | myc-IRAK1 (from UniProt P51617 1-712) (enzyme) |
| binds | myc-IRAK1-KD (from UniProt P51617 1-712) (enzyme) |
